Assay results taken from patent US20140259226A1.
Results are given in words; binding and its absence hold for the method and conditions named. Some entries that bind do so weakly or less than the wild type.

Protein sequences, listed by entry. Tags and fused reporters are not part of them. Lines headed by an entry give the natural chain unless they say otherwise; changes in a name come on top. Residues count along the entry.
UniProt Q9CAJ0, residues 23-511: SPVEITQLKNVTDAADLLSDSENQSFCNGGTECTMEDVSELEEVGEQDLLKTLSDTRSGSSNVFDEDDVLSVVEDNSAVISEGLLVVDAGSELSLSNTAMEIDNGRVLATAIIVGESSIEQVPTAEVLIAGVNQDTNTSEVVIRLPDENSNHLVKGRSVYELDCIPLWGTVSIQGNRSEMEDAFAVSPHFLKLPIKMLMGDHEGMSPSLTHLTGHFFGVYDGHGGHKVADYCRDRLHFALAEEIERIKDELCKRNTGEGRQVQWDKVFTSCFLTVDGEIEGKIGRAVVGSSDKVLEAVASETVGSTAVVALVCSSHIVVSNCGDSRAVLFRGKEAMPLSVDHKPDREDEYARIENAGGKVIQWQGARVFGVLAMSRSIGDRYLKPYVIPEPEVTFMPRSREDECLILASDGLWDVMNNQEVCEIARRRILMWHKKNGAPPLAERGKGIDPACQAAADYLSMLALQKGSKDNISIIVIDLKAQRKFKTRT
UniProt O49686: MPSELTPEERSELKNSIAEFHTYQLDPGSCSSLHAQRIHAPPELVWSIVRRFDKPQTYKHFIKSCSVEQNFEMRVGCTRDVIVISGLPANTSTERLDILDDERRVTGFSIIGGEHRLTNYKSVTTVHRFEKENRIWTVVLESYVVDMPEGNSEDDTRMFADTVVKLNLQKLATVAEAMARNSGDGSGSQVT

Molecular target: GAL4 activation domain-HAB1 fusion protein (UniProt Q9CAJ0)
Assay: yeast two-hybrid, X-gal staining, no added ABA; strength of activating mutation

binding, binds:
GAL4 BD-PYR1 M158C (from UniProt O49686 1-191) (receptor), GAL4 BD-PYR1 M158V (from UniProt O49686 1-191) (receptor), GAL4 BD-PYR1 I84H (from UniProt O49686 1-191) (receptor), GAL4 BD-PYR1 H60G (from UniProt O49686 1-191) (receptor), GAL4 BD-PYR1 T162F (from UniProt O49686 1-191) (receptor), GAL4 BD-PYR1 L87F (from UniProt O49686 1-191) (receptor), GAL4 BD-PYR1 F159A (from UniProt O49686 1-191) (receptor), GAL4 BD-PYR1 I84Q (from UniProt O49686 1-191) (receptor), GAL4 BD-PYR1 A89W (from UniProt O49686 1-191) (receptor), GAL4 BD-PYR1 H60R (from UniProt O49686 1-191) (receptor), GAL4 BD-PYR1 H60I (from UniProt O49686 1-191) (receptor), GAL4 BD-PYR1 V83P (from UniProt O49686 1-191) (receptor), GAL4 BD-PYR1 H60P (from UniProt O49686 1-191) (receptor), GAL4 BD-PYR1 H60K (from UniProt O49686 1-191) (receptor), GAL4 BD-PYR1 K170W (from UniProt O49686 1-191) (receptor), GAL4 BD-PYR1 H60M (from UniProt O49686 1-191) (receptor), GAL4 BD-PYR1 I84E (from UniProt O49686 1-191) (receptor), GAL4 BD-PYR1 H60V (from UniProt O49686 1-191) (receptor), GAL4 BD-PYR1 I84K (from UniProt O49686 1-191) (receptor), GAL4 BD-PYR1 H60W (from UniProt O49686 1-191) (receptor), GAL4 BD-PYR1 V83L (from UniProt O49686 1-191) (receptor), GAL4 BD-PYR1 M158I (from UniProt O49686 1-191) (receptor), GAL4 BD-PYR1 L166Y (from UniProt O49686 1-191) (receptor), GAL4 BD-PYR1 M158T (from UniProt O49686 1-191) (receptor), GAL4 BD-PYR1 I84P (from UniProt O49686 1-191) (receptor), GAL4 BD-PYR1 V83F (from UniProt O49686 1-191) (receptor), GAL4 BD-PYR1 H60A (from UniProt O49686 1-191) (receptor), GAL4 BD-PYR1 F159V (from UniProt O49686 1-191) (receptor), GAL4 BD-PYR1 L166F (from UniProt O49686 1-191) (receptor)
